Experimental data reported in PubChem BioAssay AID493014 (National Center for Advancing Translational Sciences (NCATS), 2011).
Some of the results follow. The main result of the screen is listed elsewhere. These columns were measured beside it and carry no call. Compounds called inactive in the main read-out are mostly missing here. Potencies come from curve fits of mixed quality, noted in brackets.

Test: qHTS Assay to Find Inhibitors of Chronic Active B-Cell Receptor Signaling
Details: ABC-DLBCL IkBa-CBG/CBR reporter, luminescence ratio (green luciferase fused to IkBa over red control in TMD8 lymphoma cells), 4 h
In short: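 Concentration-response series (up to 46 uM) were applied to TMD8 dual-reporter cells for 4 h at 37C with doxycycline. Green/red ratio, after filter-overlap correction, defined %Activity; red signal alone was normalised to basal cells and zero luminescence.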

[1] = measured here: CBR red luminescence, cell number
[2] = measured here: IkBa-CBG green luminescence

Q: With `CCCCCCCCCS(=O)(=O)N/N=C/c1cccc([N+](=O)[O-])c1` as the compound, how does the AC50 [1] read?
A: 0.00411 µM [falling, full curve, poor fit]

Q: For `CCSc1nnc(N(CCC#N)CCC#N)s1`, which AC50 [1] is on record?
A: 11.2 µM [falling, partial curve, poor fit]

Q: For `Cc1ccc2c(c1)c1c3n2CCCNC3CCC1` (centres undefined), which AC50 [1] is on record?
A: 15.8 µM [falling, single point]

Q: With `COc1ccc(S(=O)(=O)N(C)C)cc1NC(=O)CCCSc1ccccc1` as the compound, how does the AC50 [1] read?
A: 0.398 µM [rising, full curve, poor fit]

Q: For `COc1ccccc1NC(=O)C(=O)N1N=C(C(C)C)CC1(O)C(F)(F)F` (centres undefined), which AC50 [1] is on record?
A: 7.94 µM [falling, partial curve]

Q: Which AC50 [1] does the source give for `Nc1c(-c2nc(-c3cccs3)no2)nnn1-c1cccc(Cl)c1` here?
A: 0.1 µM [rising, full curve, poor fit]

Q: What does the source list for `CC[C@@]1(c2ccccc2OC)ON(c2ccccc2C(F)(F)F)C1=O`?
A: AC50 [1]: 23.1 µM [falling, partial curve]; AC50 [2]: 8.2 µM [rising, partial curve, poor fit]

Q: For `CC1=NN(c2ccccc2)C(=O)/C1=C/C=C/C=C/N(C)C`, which AC50 [1] is on record?
A: 2.82 µM [rising, partial curve, poor fit]

Q: What about the AC50 [2] of the same compound?
A: 8.91 µM [rising, partial curve, poor fit]

Q: For `CC(=O)Oc1ccc(/C=N/NC2=NS(=O)(=O)c3ccccc32)cc1`, which AC50 [1] is on record?
A: 8.91 µM [rising, partial curve, poor fit]

Q: For `COC(=O)c1ccccc1NC(=O)CCS(=O)(=O)c1ccc(Br)cc1`, which AC50 [1] is on record?
A: 35.5 µM [falling, partial curve, poor fit]

Q: With `CCCCCc1nc2c(=O)n(C)c3ccccc3c2o1` as the compound, how does the AC50 [1] read?
A: 31.6 µM [falling, single point]

Q: For `Cc1ccc(S(=O)(=O)Nc2ccccc2C(=O)NCc2cccnc2)cc1`, which AC50 [1] is on record?
A: 11.2 µM [rising, partial curve]

Q: Which AC50 [1] does the source give for `O=C(O)c1nnn(-c2ccc(F)cc2F)c1-c1ccccc1` here?
A: 0.708 µM [rising, full curve, poor fit]

Q: With `O=C(Nc1ccc(C2CC2(Cl)Cl)cc1)c1ccccc1Br` (centres undefined) as the compound, how does the AC50 [1] read?
A: 1.46 µM [falling, partial curve]

Q: For `CCOC(=O)C1=C(Cc2ccc(OC)cc2)C(=O)c2ccccc2C1=O`, which AC50 [1] is on record?
A: 29.1 µM [rising, single point]

Q: What about the AC50 [2] of the same compound?
A: 29.1 µM [falling, single point]

Q: Which AC50 [1] does the source give for `COc1ccc(CNC(=O)c2cnc3scc(C)n3c2=O)cc1` here?
A: 2.91 µM [rising, single point]

Q: With `COc1ccc(-c2ncncc2-c2ccccc2)c(O)c1` as the compound, how does the AC50 [1] read?
A: 5.62 µM [falling, single point]

Q: For `O=C(Nc1ccccc1)Nc1nnc(Cc2ccccc2F)s1`, which AC50 [1] is on record?
A: 35.5 µM [rising, single point]

Q: Which AC50 [1] does the source give for `Cc1ccc(S(=O)(=O)N(CC(=O)Nc2cccnc2)c2ccccc2C)cc1` here?
A: 6.31 µM [falling, single point]

Q: With `CS(=O)(=O)N1CCN(c2nc3ccc(Cl)cc3s2)CC1` as the compound, how does the AC50 [1] read?
A: 0.282 µM [rising, partial curve, poor fit]

Q: Which AC50 [1] does the source give for `Cc1ccc(CNC(=O)C2CC(c3ccc(C(F)(F)F)cc3)=NO2)o1` (centres undefined) here?
A: 1.78 µM [falling, full curve, poor fit]

Q: For `CN1CCN(S(=O)(=O)c2ccc(-c3ccc(Cl)cc3)cc2)CC1`, which AC50 [1] is on record?
A: 0.0517 µM [falling, full curve, poor fit]

Q: With `CCc1ccc(C(=O)NCc2cccs2)s1` as the compound, how does the AC50 [1] read?
A: 6.51 µM [rising, single point]

Q: With `Cc1sc(NC(=O)c2ccco2)nc1-c1ccccc1` as the compound, how does the AC50 [1] read?
A: 13 µM [falling, single point]

Q: Which AC50 [1] does the source give for `COc1ccccc1CNC(=O)C1CCN(S(=O)(=O)c2ccc3c(c2)CC(C)N3C(C)=O)CC1` (centres undefined) here?
A: 22.4 µM [rising, single point]

Q: Which AC50 [2] does the source give for `C=CCC[C@H](Cc1ccc(F)cc1)C(=O)OC[C@@H](Cc1c[nH]c2ccccc12)NC(=O)[C@@H](CC=C)CC(=O)N[C@H](CO)Cc1ccccc1` here?
A: 25.9 µM [rising, partial curve, poor fit]

Q: Which AC50 [1] does the source give for `O=C(Nc1nccs1)c1ccc(-c2cccc([N+](=O)[O-])c2)o1` here?
A: 5.62 µM [falling, single point]

Q: With `Cc1ccccc1NC(=O)Cn1c(O)c(N=NC(=O)c2ccccc2O)c2ccccc21` as the compound, how does the AC50 [1] read?
A: 0.92 µM [falling, full curve]

Q: Which AC50 [1] does the source give for `Cc1ccc(-n2nc(C)c3c2NC2=C(C(=O)CC(C)(C)C2)C3c2ccccc2OCC(=O)O)cc1` (centres undefined) here?
A: 17.8 µM [falling, single point]

Q: With `Cc1nc2sccn2c(=O)c1S(=O)(=O)NCCc1ccccc1` as the compound, how does the AC50 [1] read?
A: 12.6 µM [falling, partial curve, poor fit]

Q: Which results are given for `Cc1ccc(NS(=O)(=O)c2ccc(N3CCN(c4ccc(O)cc4)CC3)c([N+](=O)[O-])c2)c(C)c1`?
A: AC50 [1]: 13 µM [falling, partial curve, poor fit]; AC50 [2]: 16.4 µM [rising, partial curve, poor fit]

Q: For `Cc1ccccc1NC(=S)/C(=C(\[O-])c1cc(C)n(Cc2ccccc2Cl)c1C)[n+]1ccccc1`, which AC50 [1] is on record?
A: 1.26 µM [falling, partial curve]

Q: With `Cc1cccc(C2Nc3ccccc3C(=O)N2c2ccccc2)n1` (centres undefined) as the compound, how does the AC50 [1] read?
A: 0.366 µM [falling, full curve]

Q: For `CCCCc1nc2cc(C(=O)N3CCN(c4nc(C)cnc4C)CC3)ccc2o1`, which AC50 [1] is on record?
A: 6.31 µM [rising, single point]

Q: For `CCOC(=O)C1CCN(C(=O)COC(=O)c2c(C)c(CC)nc3ccccc23)CC1`, which AC50 [1] is on record?
A: 10.3 µM [falling, single point]

Q: Which AC50 [1] does the source give for `C[C@H]1CCC(=O)N(CCSc2ccc(Br)cc2)CC1` here?
A: 3.66 µM [rising, full curve, poor fit]

Q: With `CCn1c(SCc2cccc(F)c2)nnc1-c1ccncc1` as the compound, how does the AC50 [1] read?
A: 35.5 µM [falling, single point]

Q: Which AC50 [1] does the source give for `Oc1csc(Cc2nc(-c3ccccc3F)cs2)n1` here?
A: 0.2 µM [falling, full curve, poor fit]

Q: With `O=C(NC(NC(=S)Nc1c(Cl)cccc1Cl)C(Cl)(Cl)Cl)OCc1ccccc1` (centres undefined) as the compound, how does the AC50 [1] read?
A: 29.1 µM [falling, single point]

Q: What about the AC50 [2] of the same compound?
A: 23.1 µM [rising, partial curve, poor fit]

Q: With `CC1Cc2ccccc2N1C(=O)CSc1ccccc1` (centres undefined) as the compound, how does the AC50 [1] read?
A: 0.112 µM [rising, full curve, poor fit]

Q: Which AC50 [1] does the source give for `C=CCOc1ccc(CNn2cn[nH]c2=S)cc1OCC` here?
A: 3.55 µM [falling, partial curve, poor fit]

Q: Which AC50 [1] does the source give for `c1ccc2c(N3CCCCC3)nc(N3CCCC3)nc2c1` here?
A: 18.4 µM [rising, single point]

Q: With `O=c1oc2cc(OCCO)ccc2c2c1CCCC2` as the compound, how does the AC50 [1] read?
A: 25.1 µM [rising, single point]

Q: Which AC50 [1] does the source give for `COc1ccc(S(=O)(=O)NCC(=O)N(CC(=O)NCC2CCCO2)c2ccccc2C)cc1` (centres undefined) here?
A: 7.31 µM [rising, partial curve, poor fit]

Q: Which AC50 [1] does the source give for `Cn1[nH]c(CSc2ccc(Cl)cc2)cc1=O` here?
A: 15.8 µM [falling, partial curve, poor fit]

Q: With `Cc1cccc2cc(COC(=O)COc3ccccc3)c(=O)[nH]c12` as the compound, how does the AC50 [1] read?
A: 0.112 µM [falling, full curve, poor fit]

Q: Which AC50 [1] does the source give for `CC(=O)c1ccc(NC(=O)CCNS(=O)(=O)c2ccccc2F)cc1` here?
A: 12.6 µM [rising, partial curve, poor fit]

Q: For `CC(=O)Oc1ccc(OC(C)=O)c(SCCCCCCl)c1`, which AC50 [1] is on record?
A: 35.5 µM [falling, single point]

Q: For `COCCNC(=O)c1cc(-c2ccccc2OC)on1`, which AC50 [1] is on record?
A: 3.98 µM [falling, partial curve]

Q: Which AC50 [1] does the source give for `COC(=O)Cc1[nH]n(-c2nc3ccccc3s2)c(=O)c1C(C)=O` here?
A: 16.4 µM [falling, partial curve, poor fit]

Q: Which AC50 [1] does the source give for `COc1ccc(C(CNC(=O)c2cccc(S(=O)(=O)Nc3ccc(C)cc3)c2)N2CCCCC2)cc1` (centres undefined) here?
A: 16.4 µM [falling, single point]

Q: Which AC50 [1] does the source give for `O=c1[nH]cccc1-c1nc2ccccc2[nH]1` here?
A: 1 µM [falling, full curve, poor fit]

Q: With `O=C(CNC(=O)c1ccccc1Cl)c1ccccc1` as the compound, how does the AC50 [1] read?
A: 25.1 µM [falling, single point]

Q: For `CN1Cc2ccccc2N(CC(=O)NCc2ccccc2)C1=O`, which AC50 [1] is on record?
A: 35.5 µM [falling, single point]

Q: With `O=C(NC1CCCCC1)c1c(O)nc2sccn2c1=O` as the compound, how does the AC50 [1] read?
A: 8.2 µM [falling, partial curve, poor fit]

Q: With `CC1C/C(=C/c2ccncc2)C(=O)/C(=C/c2ccncc2)C1` (centres undefined) as the compound, how does the AC50 [1] read?
A: 28.2 µM [falling, single point]

Q: With `CCOc1ccc(C(=O)c2cc3ccc(O)cc3oc2=O)cc1` as the compound, how does the AC50 [1] read?
A: 14.1 µM [falling, single point]

Q: With `NCCCC(=O)N1c2ccccc2Sc2ccc(Cl)cc21` as the compound, how does the AC50 [1] read?
A: 35.5 µM [falling, single point]

Q: For `CCOC(=O)C1=CN(Cc2cccc(F)c2)S(=O)(=O)N(C)C1c1ccc(F)c(Cl)c1` (centres undefined), which AC50 [1] is on record?
A: 14.6 µM [falling, partial curve, poor fit]

Q: With `O=C(N/N=C/c1cccs1)c1ccc2c(c1)OCO2` as the compound, how does the AC50 [1] read?
A: 20.6 µM [falling, single point]

Q: Which AC50 [1] does the source give for `Cc1ccc(NC(=O)COC(=O)c2ccc3c(c2)NC(=O)C2CCCN32)cc1` (centres undefined) here?
A: 32.6 µM [falling, single point]

Q: For `CCN(c1ccccc1)S(=O)(=O)c1ccc(N)c(OC)c1`, which AC50 [1] is on record?
A: 0.0326 µM [falling, full curve, poor fit]

Q: For `COc1cc(-c2noc(C)c2-c2ccc3[nH]ccc3c2)cc(OC)c1OC`, which AC50 [1] is on record?
A: 11.2 µM [rising, partial curve]

Q: What about the AC50 [2] of the same compound?
A: 7.08 µM [falling, partial curve]
